# Test results reported in PMC5996148.
# Amino acid sequences for entries named in this document (tags omitted). A change or cut given only in a name is not applied to a line headed by its entry.
# UniProt P31941: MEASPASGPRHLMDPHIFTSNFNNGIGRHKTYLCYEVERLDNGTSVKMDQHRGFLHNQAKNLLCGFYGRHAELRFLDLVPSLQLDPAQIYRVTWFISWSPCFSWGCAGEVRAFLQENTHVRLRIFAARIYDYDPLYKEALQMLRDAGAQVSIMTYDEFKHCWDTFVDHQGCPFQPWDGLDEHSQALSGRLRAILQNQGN
# “And” between values parts separate entries of the source, which are not always exact repeats. Equal entries are not always repeated. Some of the results follow. For some assays here: The exact form of the protein is not confirmed.
# How the values were obtained:
# Assay in all cases: protein microarray (ProtoArray v5.0), streptavidin-Alexa Fluor 647
# Settings in all cases: 3'-biotin; 20 mM Tris (pH 7.5), 5 mM MgCl2, 100 mM KCl, 0.1% Tween-20, A/T-rich and random oligonucleotide blockers; temperature not stated; high values mean tight binding
# ANXA1 (human) = test system: ANXA1 (human)
# ANXA5 (human) = test system: ANXA5 (human)
# ANXA6 (human) = test system: ANXA6 (human)
# ANXA7 (human) = test system: ANXA7 (human)
# ANXA9 (human) = test system: ANXA9 (human)
# [1] = test system: AP-2 complex subunit sigma-1 (human)
# [2] = test system: AP-3 complex subunit sigma-1 (human)
# AP4M1 (human) = test system: AP4M1 (human)
# APBA2BP (human) = test system: APBA2BP (human)
# APBB1IP = target: T1, APBB1IP (UniProt Q7Z5R6)
# T1 sequence: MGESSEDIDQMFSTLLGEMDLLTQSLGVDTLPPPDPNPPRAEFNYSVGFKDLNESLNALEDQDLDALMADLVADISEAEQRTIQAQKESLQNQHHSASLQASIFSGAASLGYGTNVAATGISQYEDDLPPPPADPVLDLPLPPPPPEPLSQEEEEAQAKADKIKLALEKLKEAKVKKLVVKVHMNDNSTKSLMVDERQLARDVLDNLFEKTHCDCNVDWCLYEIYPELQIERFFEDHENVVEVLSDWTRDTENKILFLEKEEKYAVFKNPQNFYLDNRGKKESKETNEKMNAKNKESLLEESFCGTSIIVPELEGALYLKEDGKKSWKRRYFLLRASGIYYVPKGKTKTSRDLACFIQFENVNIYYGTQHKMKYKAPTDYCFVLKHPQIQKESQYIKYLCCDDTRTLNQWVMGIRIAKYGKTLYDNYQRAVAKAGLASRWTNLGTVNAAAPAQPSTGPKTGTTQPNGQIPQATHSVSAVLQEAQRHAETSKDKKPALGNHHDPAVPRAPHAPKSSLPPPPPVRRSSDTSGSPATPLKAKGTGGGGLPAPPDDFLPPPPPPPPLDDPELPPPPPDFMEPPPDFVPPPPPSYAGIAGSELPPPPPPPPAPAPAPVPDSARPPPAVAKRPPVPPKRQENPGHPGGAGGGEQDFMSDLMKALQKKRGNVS
# APH1A (human) = test system: APH1A (human)
# APIP (human) = test system: APIP (human)
# APITD1 (human) = test system: APITD1 (human)
# APLP2 (human) = test system: APLP2 (human)
# APOA1 (human) = test system: APOA1 (human)
# APOA1BP (human) = test system: APOA1BP (human)
# APOA2 (human) = test system: APOA2 (human)
# APOBEC3A = APOBEC3A (UniProt P31941)
# APOC2 (human) = test system: APOC2 (human)
# APOH (human) = test system: APOH (human)
sequence,measurement,setting,value
GGGAGGCTGAGGCAGG [G4-1 biotinylated (PQS2)],binding signal,ANXA1 (human),-0.33 z-score
same,binding signal,ANXA5 (human),-0.308 z-score
same,binding signal,ANXA6 (human),-0.325 z-score
same,binding signal,ANXA7 (human),-0.33 z-score
same,binding signal,ANXA9 (human),-0.277 z-score
same,binding signal,[1],-0.277 z-score
same,binding signal,[2],-0.307 z-score
same,binding signal,AP4M1 (human),-0.271 z-score
same,binding signal,APBA2BP (human),-0.335 z-score
same,binding signal,APBB1IP,-0.341 z-score
same,binding signal,APH1A (human),-0.303 z-score
same,binding signal,APIP (human),-0.353 z-score and -0.346 z-score and -0.339 z-score
same,binding signal,APITD1 (human),-0.334 z-score
same,binding signal,APLP2 (human),-0.329 z-score
same,binding signal,APOA1 (human),-0.369 z-score
same,binding signal,APOA1BP (human),-0.32 z-score
same,binding signal,APOA2 (human),-0.359 z-score
same,binding signal,APOBEC3A,-0.336 z-score
same,binding signal,APOC2 (human),-0.346 z-score
same,binding signal,APOH (human),-0.325 z-score

# Laid out differently: entries from further up.
sequence	measurement	setting	value
GGGAGGCTGAGGCAGG [G4-1 biotinylated (PQS2)]	binding signal	APIP (human)	-0.353 z-score and -0.346 z-score and -0.339 z-score
same	binding signal	APOA2 (human)	-0.359 z-score
